Measurements taken from patent US20250049036A1 (priority 2021, published 2025).
Some results were stated once for a whole list of compounds, not compound by compound.

What follows are compounds tested on Pyricularia oryzae. Details: 500 ppm; preventive spray on rice, inoculated one day after treatment.
Type: in vivo, Pyricularia oryzae on rice
With Cn1ccc2cc(C(=O)NC(C)(C)C(O)Cc3ccccc3)cnc21 (stereo not drawn) [Compound 116, N-(3-hydroxy-2-methyl-4-phenylbutan-2-yl)-1-methyl-1H-pyrrolo[2,3-b]pyridine-5-carboxamide] the “control (efficacy, disease severity) compared to the untreated check” value was at least 70%.
With Cn1cc(Cl)c2cc(C(=O)NC3Cc4ccccc4C3)cnc21 [Compound 137, 3-chloro-N-(2,3-dihydro-1H-inden-2-yl)-1-methyl-1H-pyrrolo[2,3-b]pyridine-5-carboxamide] the “control (efficacy, disease severity) compared to the untreated check” value was at least 70%.
For COc1cc(C(O)C(C)(C)NC(=O)c2cnc3ccsc3c2)ccc1F (stereo not drawn) [Compound 119, N-(1-(4-fluoro-3-methoxyphenyl)-1-hydroxy-2-methylpropan-2-yl)thieno[3,2-b] pyridine-6-carboxamide], the “control (efficacy, disease severity) compared to the untreated check” value was at least 70%.
For Cn1ccc2cc(C(=O)NC(C)(C)Cc3ccccc3Br)cnc21 [Compound 26], the “control (efficacy, disease severity) compared to the untreated check” value was at least 70%.

These compounds were tested on Fusarium culmorum. Details: 300 ppm; radial growth on potato dextrose agar, 25° C., seven days.
Type: cell-based
CC(C)CC(C)(Cc1ccccc1)NC(=O)c1cnc2c(ccn2C)c1 (stereo not drawn) [Compound 2, N-(2,4-dimethyl-1-phenylpentan-2-yl)-1-methyl-1H-pyrrolo[2,3-b]pyridine-5-carboxamide] was tested, and the “control compared to the untreated check” value was at least 70%.
With Cn1ccc2cc(C(=O)NC(C)(C)Cc3ccccc3F)cnc21 [Compound 13, N-(1-(2-fluorophenyl)-2-methylpropan-2-yl)-1-methyl-1H-pyrrolo[2,3-b]pyridine-5-carboxamide] the “control compared to the untreated check” value was at least 70%.
